The source of these data is paper PMC4973735.

Construct, isoform or probe ends are uncertain for at least one entry. Negatives hold for the conditions tested. The comparison behind a weaker result is the experiment's own reference, which may not be listed here.

The subject of this data set is BjMYB1 (R2R3-MYB) (Brassica juncea). In words: EMSA. As to conditions: 1x binding buffer (Pierce), 5 mM MgCl2, 50 ng/ul poly(dI-dC), 0.05% NP-40, 2.5% glycerol, 40 fmol biotin DNA, 15 fmol His-BjMYB1 in 20 ul, room temperature 30 min, recombinant protein, protein details: His (pET-28a).

For “ACCACCCTTTATACCCACCTACCAGACACCAACGCTCCAG (double strand) [PAL2Pro]”, the binding result is “no binding”. Regarding “GCCCAGCTAGTGAGTAACCTACCACATGAGGTAGAGAGAGGG (double strand) [W4-d3 (AC element)]”, under “almost no binding affinity”, the binding result is “binds more weakly”. With “GCCCAGCTAGTGAGTAGTCATGAGGTAGAGAGAGGG (double strand) [W4-d1]”, the binding result is “no binding”. With “GCCCAGCTAGTGAGTAGTGACTCATGAGGTAGAGAGAGGG (double strand) [W4 (Wbl-4)]”, the binding result was “binds”. As to “GCCCAGCTAGTGAGTATTGACCCATGAGGTAGAGAGAGGG (double strand) [W4-d2 (W-box)]”, the binding result is reported as “binds”.
